According to PMC10163288:
The other results are listed elsewhere or left out.

B1: il10ra_site1_normal_mot_HHH_b2_07521_000000141_0001_20_37_H_._HHH_b2_01325_0001_0000100016_0000001_1_af2pred_0001 (protein)
chain: SSSSDDEEAVRLSLRFARFLAEQGDPEAARIIIKAAEEIARRGNNPELEEEVEEVLRELNSSSSS
B2: il10ra_site1_sap_11_mot_47763b419dcba15278d0659274068abf_0001_af2_000000068_0001_35_48_H_._0aba0880d6a430e09be20104961ad3ed_0001_0001_0000100007_0000001_0_0001_ … (protein)
chain: SSSSDREEEVKELIEKLREAVEEGDEELVFKLTIRALSLAIEINNPELREEVARLAREAINSSSS
B3: il10ra_site1_normal_mot_HHH_b2_05323_000000159_0001_1_18_H_._HHH_b1_00466_af2_0001_0000100005_0000001_0 (protein)
chain: SSSSDELLQEALELLKEAFRLALRGNPEEARKVLEEAREILEEAGDERLLRQVEHLERAQSSSSS
B4: il10ra_site1_sap_14_mot_HHH_b1_03314_af2_000000278_0001_42_55_H_._HHH_b1_05793_0001_0000100005_0000001_0_0001 (protein)
chain: SSSSSVEEEVEELIEKAEELRKRGDPRWLELLMEALRIALKAGNPELLEELWEFMHRLAKSSSSS
B5: il10ra_site1_normal_mot_HHH_b1_05326_000000242_0001_1_20_H_._HHH_b1_06269_0001_0000300019_0000001_1 (protein)
chain: SSSSSDEVLELIQEAFRLLLRGDPEEARELVEEAEELAKELNDPALQKAVEIILEAVEANSSSSS
B6: il10ra_site1_sap_20_mot_HHH_b1_05326_000000242_0001_1_20_H_._HHH_b1_06846_af2_0001_0000300021_0000001_0_0001 (protein)
chain: SSSSSDEEELRELLERIEELLEEGDHEEAIRLIIEVIRLAFQLRDEEALQLAWELAKRLASSSSS
B7: il10ra_site1_sap_15_mot_HHH_b1_00682_000000211_0001_1_20_H_._HHH_b1_01856_0001_0000900045_0000001_0_0001_af2pred_0001 (protein)
chain: SSSDAREEVEKLIERVEELLKQGDDEEAKRLLMKALYIAARGEDEEAIQLVLKLFREVLQLSSSS
B8: il10ra_site1_normal_mot_HHH_b2_08186_000000021_0001_43_56_H_._HHH_b1_07279_0001_0000400037_0000001_0 (protein)
chain: SSSSSDEEEVRELLEEAEELARRGNPREAARVLLRALRIIYEAKNPELLRELWEVLRRVASSSSS
B9: il10ra_site1_sap_7_mot_HHH_b2_06795_000000133_0001_42_56_H_._HHH_b2_01770_0001_0000100001_0000002_0_0001 (protein)
chain: SSSSDEEEVEELLEEAKRLAEEGNPREAARLLQEALQHAYQAKNEELLREIWEAVREVAELSSSS
B10: il10ra_site1_sap_14_mot_6805e7cfcec1a9f49da1e1cd80eb4878_0001_af2_000000116_0001_1_14_H_._HEEHE_0687_0001_0000100004_0000001_0_0001 (protein)
chain: SSSSQETFEFLERVIEELKRLWEEGDEEEFERLVREAERYLEERGDQVALIALRHMVEALSSSSS
B11: il10ra_site1_sap_12_mot_e1dd4851c59bc1cdde016f988f6856bd_0001_1_000000200_0001_16_31_H_._HHH_b2_02453_0001_0000600030_0000001_0_0001 (protein)
chain: SSSSSDEDERYARLAIKFARLLARRDPEAARRLIELMISAAEENGDEEAVEELREVLEELSSSSS
B12: il10ra_site1_sap_25_mot_HHH_b1_02397_af2_000000085_0001_39_57_H_._HHH_b1_06551_0001_0000100004_0000002_0_0001 (protein)
chain: SSSDESQEVFEALREAAELRTEGDPEEAHKLLEELEKELREEGDRLLLIQVEFLLRDVEQGSSSS
B13: il10ra_site1_normal_mot_HHH_b2_02337_000000026_0001_38_52_H_._HHH_b2_07301_0001_0000100002_0000002_0 (protein)
chain: SSSSDELEELLERLEEALEEGDQEEFIELAQEVSSLALELGDQEVLKQVWELVQEFERLHSSSSS
B14: il10ra_site1_sap_22_mot_HEEHE_3255_000000102_0001_40_55_H_._HHH_b1_05364_af2_0001_0000300013_0000002_0_0001_af2pred_0001 (protein)
chain: SSSSSRLEEYARVAHFLAKAAAEQGNPEEARRVLERAARVLRQKNDEEALELIEELLEELSSSSS
B15: il10ra_site1_sap_16_mot_HHH_b1_00992_000000182_0001_23_40_H_._HHH_b1_02295_af2_0001_0000300017_0000001_0_0001 (protein)
chain: SEQVREIEELLKRNVEQAIAALAHLLAKSGDPELLRLAKELSRLMFQNPEEARKLVEEILEELKK
B16: il10ra_site1_normal_mot_HHH_b2_07579_000000275_0001_1_19_H_._HHH_b2_02864_0001_0000100008_0000002_0 (protein)
chain: SSSSDLEEEAEELLKELEELGNPVFVFALEHALRDVKATGDPEAKRVLEILIKWIEEALKGSSSS
B17: il10ra_site1_normal_mot_8756ee2cf497b5429c717dfc0c0bcfd6_0001_000000186_0001_1_13_H_._HHH_b1_02771_0001_0000100002_0000001_0_af2pred_0001 (protein)
chain: SSSSSEEAEEVQRLLRRIAELHSEGNPEEAKELAEEAEELARRGNNEVLEVIVEYLEELLNSSSS
B18: il10ra_site1_sap_23_mot_HHH_b2_00952_af2_000000228_0001_1_18_H_._HHH_b2_00788_af2_0001_0000800016_0000001_0_0001_af2pred_0001 (protein)
chain: SSSSSSARFLLESAERAIEIALKAGDPELARRIIKIAELLARQLGDEEVEEELEELKKEADSSSS
B19: il10ra_site1_normal_mot_HHH_b1_08446_000000041_0001_1_19_H_._HHH_b1_01093_0001_0000200027_0000002_0 (protein)
chain: SSSSDEEYELAKEAIKRAQELFENGNPEEAERLLREVIEELEELGDELVVFALRHLLRALTSSSS
B20: il10ra_site1_normal_mot_HHH_b2_07440_af2_000000021_0001_1_18_H_._HHH_b2_05956_0001_0000200027_0000002_0 (protein)
chain: SSSSSDAEEEALELSLKAFRLLLRGNPEEAEEVLKEAEEVAKEAGNERILRILEELLKVASSSSS
B21: il10ra_site1_normal_mot_HHH_b1_00456_000000263_0001_1_17_H_._HHH_b2_02610_0001_0000100003_0000002_0_af2pred_0001 (protein)
chain: SSSSSSEVQEEVEELLEEAKRIKDPAERTYALLRAFALANRNNDPELRKLVEKVAIELSSSSSSS
B22: il10ra_site1_sap_19_mot_HHH_b2_00943_af2_000000149_0001_1_17_H_._HHH_b1_08407_0001_0000100002_0000001_0_0001_af2pred_dldesign_0_af2pred (protein)
chain: SSSSNPEARATTRYLLEAAREIEDEELREKALDYARACAEKLNDPELLAELERVREELEKSSSSS
B23: il10ra_site1_normal_mot_HHH_b2_02053_af2_000000006_0001_3_19_H_._HHH_b2_04257_af2_0001_0000300004_0000001_0_af2pred_0001 (protein)
chain: SSSSSELQEILKLIEEALEARQQGNPEEAEELLEEAEKLAREANDPLAERLIKIAKKMVRSSSSS
B24: il10ra_site1_sap_17_mot_HHH_b1_05357_000000034_0001_23_39_H_._HHH_b1_06750_af2_0001_0000700020_0000002_0_0001 (protein)
chain: SSSSSLVEETYRLSREAMELLRNGNPEEAERVLREIEELLEENNDRVMLHVIEYILRQIESSSSS
B25: il10ra_site1_sap_19_mot_HHH_b2_06600_af2_000000211_0001_1_16_H_._HHH_b1_07688_af2_0001_0000600013_0000002_0_0001 (protein)
chain: SSSSSSDEVLELSRRAFHALLRGNEEEARELLEEAIELAREAGDPRLLRNLESLLEITSSSSSSS
B26: il10ra_site1_normal_mot_cff26900b2948c323735a169404cbef0_0001_1_000000271_0001_18_33_H_._HHH_b1_05248_0001_0000600021_0000001_0_af2pred_0001 (protein)
chain: SSSSDEYEEILREYEEEAKELGNSNARRRLRWATEIAKRLGASEEELRRILRAALELIEQGSSSS
B27: il10ra_site1_normal_mot_ems_3hC_416_0001_000000048_0001_1_19_H_._HHH_b2_07604_af2_0001_0000100001_0000001_0 (protein)
chain: SSSDAMQRVLELIIEAFRALLRGDREEAEELVREAEEIARERNDEAAERAVEIILEAVKVSSSSS
B28: il10ra_site1_sap_22_mot_HHH_b2_06602_000000226_0001_1_16_H_._HHH_b2_00323_0001_0000100002_0000002_0_0001_af2pred_0001 (protein)
chain: SSSSSEELERYREELEKLIEEGDREEFAQLFVEAARRAQELGDKELLEEILRLAVEFVREDSSSS
B29: il10ra_site1_sap_21_mot_HHH_b2_08265_af2_000000206_0001_22_38_H_._HHH_b1_06049_0001_0000200020_0000002_0_0001 (protein)
chain: SSSSDQEELVRLLREAFRLALRGNPEEAREVLREARELAEELNDERALHVLEDLERAVHGSSSSS
B30: il10ra_site1_normal_mot_HHH_b2_02736_000000092_0001_22_38_H_._HHH_b1_03692_0001_0000200033_0000001_0 (protein)
chain: SSSSQEAYELSRRAIEEVSRLFEEGNREEARQLAEELEELLRELGNVAALFAAEILLRALESSSS
B31: il10ra_site1_sap_20_mot_HHH_b1_03801_000000023_0001_41_55_H_._HHH_b1_02094_0001_0000200011_0000002_0_0001 (protein)
chain: SSSSDEAYEVVREAIEEAIEALRRGNPEEAREIVEEAIELIRELGNMSALFALEHLLRVINSSSS
B32: il10ra_site1_sap_17_mot_HHH_b2_01447_af2_000000258_0001_1_20_H_._HHH_b1_08248_af2_0001_0000200008_0000001_0_0001 (protein)
chain: SSSSDETYEISRKAIEEASELWERGNPEEAERVVEEALEEVRERNDPAAVFSLENLLRAIHSSSS
B33: il10ra_site1_sap_17_mot_HHH_b2_02337_000000026_0001_38_52_H_._HHH_b2_02689_0001_0000400041_0000001_0_0001 (protein)
chain: SSSSDREQRVFELLRRIVELHLEGDREEAEELLEEAEELIRELGSDIFRWQLEWLERLVNSSSSS
B34: il10ra_site1_normal_mot_HHH_b2_06786_000000018_0001_41_57_H_._HHH_b1_04343_0001_0000300015_0000001_0 (protein)
chain: SSSTDEVIERASEVAQEAVRLAIRRSDEETLQELWRLFKEIIREGDPELLKELERLLEELRSSSS
B35: il10ra_site1_sap_22_mot_HHH_b2_03220_af2_000000223_0001_23_40_H_._HHH_b1_00352_0001_0000400021_0000001_0_0001 (protein)
chain: SSSSSEEEEEVKELLEKAKELRERGDPRKASKVLAEAVHLALKANNEELLQEVWRLVKELSSSSS
B36: il10ra_site1_sap_29_mot_HHH_b1_06828_af2_000000004_0001_41_57_H_._HHH_b1_06126_af2_0001_0000500008_0000001_1_0001 (protein)
chain: SSSSDEEEEVKELLEEVRRLIEEGDDEEATELLLRATHLALRLGDAELLQEVWEVVQELYNSSSS
B37: il10ra_site1_sap_29_mot_HHH_b2_06767_000000020_0001_41_56_H_._HHH_b2_07372_0001_0000400044_0000002_0_0001 (protein)
chain: SSSSTDERFEKVAEAIKEAIELQRNGDPEEARRVLEEALELAEEANDQILRRILEKMLERLSSSS

These binders were tested against il10ra, Q13651 (assay: yeast display titration).

Apparent Kd, inactive:
B1 no binding seen
B2 no binding seen
B3 no binding seen
B4 no binding seen
B5 no binding seen
B6 no binding seen
B7 no binding seen
B8 no binding seen
B9 no binding seen
B10 no binding seen
B11 no binding seen
B12 no binding seen
B13 no binding seen
B14 no binding seen
B15 no binding seen
B16 no binding seen
B17 no binding seen
B18 no binding seen
B19 no binding seen
B20 no binding seen
B21 no binding seen
B22 no binding seen
B23 no binding seen
B24 no binding seen
B25 no binding seen
B26 no binding seen
B27 no binding seen
B28 no binding seen
B29 no binding seen
B30 no binding seen
B31 no binding seen
B32 no binding seen
B33 no binding seen
B34 no binding seen
B35 no binding seen
B36 no binding seen
B37 no binding seen

Reprinted at random: two entries already listed
Apparent Kd, inactive:
B26 no binding seen
B30 no binding seen
